# Reference: patent publication US10105357B2, “Indication of antibiotic drugs for preparation of cancer inhibition pharmaceutical composition” (LAUNX BIOMEDICAL CO., LTD., priority 2014, dated 2018)
# Counter-ions that a name gives are not always drawn.
# Assays:
# [1] = system: PC3 (p53−) (Prostate Adenocarcinoma); test: Cell viability analysis, prostate cancer PC3; type: cell-based; settings: Homo sapiens, 72 h, read-out: cell viability (survival rate), PC3
# [2] = system: HCT116 (p53+) (Colorectal Carcinoma); test: cells; settings: Homo sapiens, HCT-116, 72 h, read-out: cell viability (survival rate), HCT116
# [3] = system: MKN-45 (Gastric Adenocarcinoma); test: Cell viability analysis, gastric cancer MKN-45; type: cell-based; settings: Homo sapiens, MKN-45, 72 h, read-out: cell viability (survival rate), MKN-45
# [4] = system: MCF7 (Mammary Gland, Adenocarcinoma); test: Cell viability analysis, breast cancer MCF7; type: cell-based; settings: Homo sapiens, MCF7, 72 h, read-out: cell viability (survival rate), MCF7
# [5] = system: HepG2 (Hepatocellular Carcinoma); test: Cell viability analysis, hepatic cancer HepG2; type: cell-based; settings: Homo sapiens, HepG2, 72 h, read-out: cell viability (survival rate), HepG2
# [6] = system: A549 (Lung Adenocarcinoma); test: Cell viability analysis, lung cancer A549; type: cell-based; settings: Homo sapiens, A549, 72 h, read-out: cell viability (survival rate), A549
# [7] = system: TSGH-8301 (Urinary Bladder Carcinoma); test: Cell viability analysis, bladder cancer TSGH-8301; type: cell-based; settings: Homo sapiens, 72 h, read-out: cell viability (survival rate), TSGH
# [8] = system: HI650 (Lung Adenocarcinoma); test: Cell viability analysis, lung cancer HI650; type: cell-based; settings: Homo sapiens, NCI-H1650, 72 h, read-out: cell viability (survival rate), H1650
SMILES,viability at 10 µM [1] [%],viability at 10 µM [2] [%],viability at 10 µM [3] [%],viability at 10 µM [4] [%],viability at 10 µM [5] [%],viability at 10 µM [6] [%],viability at 10 µM [7] [%],viability at 10 µM [8] [%]
CCn1cc(C(=O)O)c(=O)c2cc(F)c(N3CCN(C)CC3)cc21 [Pefloxacin mesylate],73.2,114,51.6,62.9,108,–,–,–
CCC[C@@H]1C[C@@H](C(=O)N[C@@H]([C@H]2O[C@H](SC)[C@H](O)[C@@H](O)[C@H]2O)[C@H](C)Cl)N(C)C1 [Clindamycin],–,–,–,–,96.5,128,67.2,63.3
